Experimental data: PubChem BioAssay AID1259260 (Sanger Institute, 2017)

Assay: 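Essential and drug-synergistic kinases in a colorectal cancer cell line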 (primary screen)
Cell system: human NCI-H716 colorectal cancer cells
Knock-down reagent: siRNA pool against human genes
Treatment: anchor drugs BYL719 (alpelisib) 1 µM, cetuximab 5 µg/ml or trametinib 10 nM, each at a dose chosen to harm viability only mildly; DMSO vehicle for the knock-down-alone arm
Measured: 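Replicate-averaged viability relative to a non-targeting pool, a robust z-score for knock-down alone, and a synergy score per anchor drug versus each agent alone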
Direction: viability robust z-score, siRNA alone: higher = more surviving cells; below -3 called essential; viability vs control, no drug: higher = more surviving cells
Call rule: 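Essential when the robust z-score for knock-down alone falls below -3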
Meaning of the calls: active = essential (knock-down alone lowers viability); inactive = no essential effect
The whole screen tested 794 reagents; this is an unselected part. Of all reagents, 13 (1.6%) were called active. 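Calls reflect only knock-down without drug; synergy above 0.15 was grouped apart and does not change the call.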 The numbers tell different reagents against one gene apart. No viability above 1 is reported: the scale is capped. Not all columns of the deposit are shown. The record does not give: the amount of reagent, the time to read-out.

gene | reagent no. | viability robust z-score, siRNA alone | viability vs control, no drug (fraction of control) | Call
HUS1 | 1 | 0.602 | 1 | inactive
PIM1 | 1 | 0.426 | 0.982 | inactive
MATK | 1 | -1.56 | 0.775 | inactive
LTK | 1 | -0.253 | 0.911 | inactive
TRIB2 | 1 | -1.38 | 0.794 | inactive
STK16 | 1 | 0.602 | 1 | inactive
ILK | 1 | 0.602 | 1 | inactive
ILK | 2 | 0.602 | 1 | inactive
KSR2 | 1 | 0.602 | 1 | inactive
PIK3CB | 1 | -0.31 | 0.905 | inactive
DGKQ | 1 | 0.602 | 1 | inactive
PIM3 | 1 | -1.2 | 0.813 | inactive
MYO3B | 1 | 0.602 | 1 | inactive
AKT1 | 1 | 0.602 | 1 | inactive
MARK1 | 1 | 0.602 | 1 | inactive
AKT2 | 1 | 0.602 | 1 | inactive
ROCK1 | 1 | 0.351 | 0.974 | inactive
CMPK1 | 1 | 0.602 | 1 | inactive
CDADC1 | 1 | -2.25 | 0.703 | inactive
GRK1 | 1 | 0.602 | 1 | inactive
